In US7488588 (LICENTIA, dated 2009):

Tests used:
[1] = molecular target: human GFRα4, GPI-anchored isoform a (GFRα4a) (human); assay: chemical cross-linking on GFRA4a-transfected CHO cells (no Ret)
[2] = molecular target: human GFRα4, GPI-anchored isoform a (GFRα4a) (human); assay: [125I]PSPN binding to GFRA4a-transfected Neuro-2a cells
[3] = molecular target: human GFRα4, GPI-anchored isoform a (GFRα4a) (human); assay: chemical cross-linking of [125I]PSPN to GFRA4a-transfected CHO cells (no Ret), SDS-PAGE
[4] = molecular target: human GFRα4, GPI-anchored isoform a (GFRα4a) (human); assay: cross-linking of [125I]PSPN in hGFRα4/Neuro-2a cells, immunoprecipitation with Ret antibodies, SDS-PAGE
[5] = molecular target: human GFRα4, GPI-anchored isoform a (GFRα4a) (human); assay: chemical cross-linking of [125I]PSPN on GFRA4-transfected cells

binding [1]: binds
binding [2]: binds
binding [3]: binds
binding [4]: binds
binding [5]: binds
B1: human persephin (PSPN) (ligand, UniProt O60542 61-156, looked up)
chain: ALSGPCQLWSLTLSVAELGLGYASEEKVIFRYCAGSCPRGARTQHGLALARLQGQGRAHGGPCCRPTRYTDVAFLDDRHRWQRLPQLSAAACGCGG
notes: Cross-linking gels show monomer (approx. 14-16 kDa) and dimer (32 kDa) bands; also called unlabeled PSPN

These are yes or no findings as the source states them, for the method shown. A result given as binding can be weak or reduced; the word gives no strength.
